Source: the supplement of paper PMC11732987, “Enantioselective OTUD7B fragment discovery through chemoproteomics screening and high-throughput optimisation” (Communications Chemistry, 2025)
The list shows a part of the results. The data scatter; read single values as rough.

Chains of the proteins cited; added tags and fusions are not shown. Lines headed by an entry give the natural chain unless they say otherwise; changes in a name come on top. Residues count along the entry.
UniProt Q9Y3P4: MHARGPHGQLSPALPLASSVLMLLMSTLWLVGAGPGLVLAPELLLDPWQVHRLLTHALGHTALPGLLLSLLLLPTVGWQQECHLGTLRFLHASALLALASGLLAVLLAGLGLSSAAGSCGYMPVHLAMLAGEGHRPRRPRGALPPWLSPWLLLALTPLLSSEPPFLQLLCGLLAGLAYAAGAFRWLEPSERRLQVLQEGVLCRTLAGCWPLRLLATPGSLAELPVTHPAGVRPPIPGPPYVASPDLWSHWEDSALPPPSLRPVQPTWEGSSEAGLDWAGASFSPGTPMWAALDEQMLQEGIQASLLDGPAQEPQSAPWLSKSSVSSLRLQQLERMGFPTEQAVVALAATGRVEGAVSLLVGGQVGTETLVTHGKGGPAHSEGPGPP
UniProt Q5UIP0: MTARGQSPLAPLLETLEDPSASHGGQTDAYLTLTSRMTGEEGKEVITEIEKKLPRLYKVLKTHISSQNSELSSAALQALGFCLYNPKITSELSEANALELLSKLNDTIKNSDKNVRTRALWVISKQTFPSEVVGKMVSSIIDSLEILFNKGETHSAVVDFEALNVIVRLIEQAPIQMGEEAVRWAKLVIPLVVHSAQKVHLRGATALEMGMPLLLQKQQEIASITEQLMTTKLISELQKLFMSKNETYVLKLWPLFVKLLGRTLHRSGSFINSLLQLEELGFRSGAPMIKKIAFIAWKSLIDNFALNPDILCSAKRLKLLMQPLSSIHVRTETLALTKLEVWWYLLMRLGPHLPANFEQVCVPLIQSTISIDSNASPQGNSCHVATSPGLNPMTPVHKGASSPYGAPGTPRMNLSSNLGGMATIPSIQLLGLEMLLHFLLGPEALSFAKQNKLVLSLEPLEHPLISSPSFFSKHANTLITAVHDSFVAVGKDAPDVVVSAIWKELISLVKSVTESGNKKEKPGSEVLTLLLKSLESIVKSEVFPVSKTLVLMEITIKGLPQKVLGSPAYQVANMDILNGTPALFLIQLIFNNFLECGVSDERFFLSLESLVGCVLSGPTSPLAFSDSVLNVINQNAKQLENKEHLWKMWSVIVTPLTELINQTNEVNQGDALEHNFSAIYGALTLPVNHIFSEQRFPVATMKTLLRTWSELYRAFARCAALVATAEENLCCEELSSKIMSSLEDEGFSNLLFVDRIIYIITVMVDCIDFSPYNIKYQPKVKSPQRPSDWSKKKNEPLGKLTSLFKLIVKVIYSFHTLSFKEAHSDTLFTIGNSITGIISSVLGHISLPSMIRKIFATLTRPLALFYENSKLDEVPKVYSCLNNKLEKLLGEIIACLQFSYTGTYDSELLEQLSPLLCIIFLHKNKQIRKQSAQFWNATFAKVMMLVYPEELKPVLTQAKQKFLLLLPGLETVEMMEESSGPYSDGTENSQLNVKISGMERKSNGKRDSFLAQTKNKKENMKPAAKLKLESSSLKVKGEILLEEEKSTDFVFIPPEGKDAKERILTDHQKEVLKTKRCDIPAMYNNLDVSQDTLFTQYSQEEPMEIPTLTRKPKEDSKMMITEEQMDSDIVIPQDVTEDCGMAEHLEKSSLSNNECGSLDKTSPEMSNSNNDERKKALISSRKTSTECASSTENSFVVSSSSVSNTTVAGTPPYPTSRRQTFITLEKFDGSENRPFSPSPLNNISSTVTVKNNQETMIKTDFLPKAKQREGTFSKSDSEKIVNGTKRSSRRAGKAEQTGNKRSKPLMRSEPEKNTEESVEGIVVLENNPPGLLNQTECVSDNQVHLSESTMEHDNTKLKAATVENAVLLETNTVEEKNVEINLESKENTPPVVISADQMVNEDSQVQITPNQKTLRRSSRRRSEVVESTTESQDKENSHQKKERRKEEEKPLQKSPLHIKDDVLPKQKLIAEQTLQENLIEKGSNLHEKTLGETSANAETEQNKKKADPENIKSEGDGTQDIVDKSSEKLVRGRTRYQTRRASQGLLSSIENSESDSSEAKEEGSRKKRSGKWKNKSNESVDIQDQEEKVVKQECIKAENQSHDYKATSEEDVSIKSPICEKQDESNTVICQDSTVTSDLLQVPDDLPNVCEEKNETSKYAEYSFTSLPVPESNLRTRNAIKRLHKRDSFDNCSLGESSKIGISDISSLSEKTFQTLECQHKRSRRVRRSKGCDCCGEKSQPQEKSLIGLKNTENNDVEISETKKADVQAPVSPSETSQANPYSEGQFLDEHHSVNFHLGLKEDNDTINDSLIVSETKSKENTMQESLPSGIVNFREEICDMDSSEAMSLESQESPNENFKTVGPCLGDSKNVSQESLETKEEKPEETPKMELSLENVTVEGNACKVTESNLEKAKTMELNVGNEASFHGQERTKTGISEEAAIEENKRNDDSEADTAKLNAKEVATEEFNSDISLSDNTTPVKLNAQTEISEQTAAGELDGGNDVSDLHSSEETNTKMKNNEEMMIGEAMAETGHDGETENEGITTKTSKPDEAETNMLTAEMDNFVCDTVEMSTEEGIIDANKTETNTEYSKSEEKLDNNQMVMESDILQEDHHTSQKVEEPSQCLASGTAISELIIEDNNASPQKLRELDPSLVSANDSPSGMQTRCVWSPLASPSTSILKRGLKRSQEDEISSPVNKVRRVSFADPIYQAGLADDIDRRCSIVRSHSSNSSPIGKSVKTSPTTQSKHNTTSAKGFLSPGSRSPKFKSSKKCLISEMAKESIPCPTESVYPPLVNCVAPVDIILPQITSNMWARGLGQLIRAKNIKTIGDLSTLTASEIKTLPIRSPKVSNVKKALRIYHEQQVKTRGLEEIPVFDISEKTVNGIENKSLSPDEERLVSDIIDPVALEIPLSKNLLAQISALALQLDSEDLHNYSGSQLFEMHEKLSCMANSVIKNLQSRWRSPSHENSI
UniProt Q96PM5: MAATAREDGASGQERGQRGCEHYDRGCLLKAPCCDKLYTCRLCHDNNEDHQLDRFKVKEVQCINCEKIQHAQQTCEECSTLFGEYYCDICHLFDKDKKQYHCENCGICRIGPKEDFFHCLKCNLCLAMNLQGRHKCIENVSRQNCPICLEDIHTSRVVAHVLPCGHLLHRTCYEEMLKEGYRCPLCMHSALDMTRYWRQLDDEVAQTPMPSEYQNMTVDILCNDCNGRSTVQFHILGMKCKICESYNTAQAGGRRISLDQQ
UniProt P49792, whole entry, looked up: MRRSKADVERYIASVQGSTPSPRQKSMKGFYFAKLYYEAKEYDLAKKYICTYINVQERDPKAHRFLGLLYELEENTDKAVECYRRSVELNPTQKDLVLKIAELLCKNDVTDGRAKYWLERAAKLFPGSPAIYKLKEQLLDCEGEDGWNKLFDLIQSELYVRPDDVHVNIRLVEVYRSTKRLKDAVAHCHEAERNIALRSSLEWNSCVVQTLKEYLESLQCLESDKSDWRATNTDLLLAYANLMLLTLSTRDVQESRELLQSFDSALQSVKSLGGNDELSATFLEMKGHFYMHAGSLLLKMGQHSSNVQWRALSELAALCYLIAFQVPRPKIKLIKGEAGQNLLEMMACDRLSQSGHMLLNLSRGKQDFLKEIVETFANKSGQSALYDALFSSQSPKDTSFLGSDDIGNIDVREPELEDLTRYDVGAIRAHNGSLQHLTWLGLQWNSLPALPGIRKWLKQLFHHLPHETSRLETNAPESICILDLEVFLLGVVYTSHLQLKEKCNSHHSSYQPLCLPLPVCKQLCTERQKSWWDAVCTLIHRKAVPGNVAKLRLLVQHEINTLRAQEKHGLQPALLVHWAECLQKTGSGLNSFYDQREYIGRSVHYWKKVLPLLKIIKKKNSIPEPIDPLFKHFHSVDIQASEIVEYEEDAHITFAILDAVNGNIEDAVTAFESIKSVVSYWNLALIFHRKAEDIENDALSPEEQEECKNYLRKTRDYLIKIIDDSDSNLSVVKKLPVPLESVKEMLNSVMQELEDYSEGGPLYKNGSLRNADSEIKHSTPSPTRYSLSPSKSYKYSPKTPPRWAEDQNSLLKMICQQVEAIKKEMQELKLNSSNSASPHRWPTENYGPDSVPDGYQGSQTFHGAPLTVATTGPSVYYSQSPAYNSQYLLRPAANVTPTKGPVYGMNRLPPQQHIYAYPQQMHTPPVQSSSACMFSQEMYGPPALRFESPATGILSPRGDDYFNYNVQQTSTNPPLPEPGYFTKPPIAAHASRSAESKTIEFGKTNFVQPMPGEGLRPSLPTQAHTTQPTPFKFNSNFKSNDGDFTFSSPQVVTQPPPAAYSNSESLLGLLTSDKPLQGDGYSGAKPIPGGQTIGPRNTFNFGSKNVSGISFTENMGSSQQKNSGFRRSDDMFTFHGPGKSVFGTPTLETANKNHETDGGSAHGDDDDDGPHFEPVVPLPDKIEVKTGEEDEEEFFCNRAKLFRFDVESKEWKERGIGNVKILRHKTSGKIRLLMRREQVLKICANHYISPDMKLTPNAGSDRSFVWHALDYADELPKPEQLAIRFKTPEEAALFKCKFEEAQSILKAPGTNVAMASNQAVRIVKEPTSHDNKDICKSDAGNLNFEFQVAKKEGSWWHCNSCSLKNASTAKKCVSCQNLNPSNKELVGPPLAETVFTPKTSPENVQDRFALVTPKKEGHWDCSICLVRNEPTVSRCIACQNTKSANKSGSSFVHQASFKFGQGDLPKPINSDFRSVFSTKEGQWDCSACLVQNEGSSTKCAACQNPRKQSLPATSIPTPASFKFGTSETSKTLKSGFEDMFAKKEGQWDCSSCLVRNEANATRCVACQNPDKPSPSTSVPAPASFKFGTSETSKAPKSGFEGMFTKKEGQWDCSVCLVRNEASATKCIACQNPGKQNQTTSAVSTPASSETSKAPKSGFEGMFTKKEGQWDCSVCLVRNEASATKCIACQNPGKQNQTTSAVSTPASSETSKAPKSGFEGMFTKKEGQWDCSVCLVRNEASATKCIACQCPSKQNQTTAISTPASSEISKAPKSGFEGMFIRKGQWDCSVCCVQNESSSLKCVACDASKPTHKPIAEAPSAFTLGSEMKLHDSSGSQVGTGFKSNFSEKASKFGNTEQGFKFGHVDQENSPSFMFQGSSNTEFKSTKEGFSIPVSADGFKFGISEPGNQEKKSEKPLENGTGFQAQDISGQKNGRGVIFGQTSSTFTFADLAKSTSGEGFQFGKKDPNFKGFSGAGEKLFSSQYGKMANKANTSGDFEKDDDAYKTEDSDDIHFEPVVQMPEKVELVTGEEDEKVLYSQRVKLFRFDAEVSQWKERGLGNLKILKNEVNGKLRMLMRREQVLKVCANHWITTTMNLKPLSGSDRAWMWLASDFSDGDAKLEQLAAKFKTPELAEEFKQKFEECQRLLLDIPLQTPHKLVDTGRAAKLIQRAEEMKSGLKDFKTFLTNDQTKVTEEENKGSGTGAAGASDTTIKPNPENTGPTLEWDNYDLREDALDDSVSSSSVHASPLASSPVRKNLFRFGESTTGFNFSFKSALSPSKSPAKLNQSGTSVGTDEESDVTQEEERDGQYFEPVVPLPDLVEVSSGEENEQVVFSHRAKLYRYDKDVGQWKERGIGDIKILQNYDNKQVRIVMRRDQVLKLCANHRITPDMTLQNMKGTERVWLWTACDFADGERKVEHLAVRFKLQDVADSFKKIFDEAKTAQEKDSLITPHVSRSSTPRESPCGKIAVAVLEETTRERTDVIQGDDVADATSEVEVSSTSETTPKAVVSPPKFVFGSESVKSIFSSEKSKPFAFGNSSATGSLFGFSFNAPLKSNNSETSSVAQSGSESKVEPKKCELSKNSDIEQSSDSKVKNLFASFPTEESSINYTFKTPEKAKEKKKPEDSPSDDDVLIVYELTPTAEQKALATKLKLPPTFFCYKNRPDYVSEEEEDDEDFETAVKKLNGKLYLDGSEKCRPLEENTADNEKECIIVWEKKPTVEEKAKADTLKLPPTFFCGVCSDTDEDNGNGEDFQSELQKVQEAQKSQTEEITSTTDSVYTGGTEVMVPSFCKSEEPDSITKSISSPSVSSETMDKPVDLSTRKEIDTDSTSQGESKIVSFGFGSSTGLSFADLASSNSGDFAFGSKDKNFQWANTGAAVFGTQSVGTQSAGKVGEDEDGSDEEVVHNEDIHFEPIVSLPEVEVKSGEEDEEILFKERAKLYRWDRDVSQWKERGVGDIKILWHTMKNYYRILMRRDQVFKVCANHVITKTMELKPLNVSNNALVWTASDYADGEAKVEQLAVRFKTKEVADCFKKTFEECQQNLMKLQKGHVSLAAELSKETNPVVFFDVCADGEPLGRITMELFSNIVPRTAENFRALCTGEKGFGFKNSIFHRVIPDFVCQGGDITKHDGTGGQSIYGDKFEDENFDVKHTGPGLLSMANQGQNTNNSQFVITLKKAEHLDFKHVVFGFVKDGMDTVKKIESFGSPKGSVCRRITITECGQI
UniProt P49792, 2766-2792: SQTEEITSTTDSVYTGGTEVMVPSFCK
UniProt Q14699, 195-217: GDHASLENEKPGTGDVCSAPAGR

Compound: ClCC(=O)N[C@H]1CCCc2ccccc12
Assay: log2 mean competition ratio of IA-DTB cysteine labelling (DMSO/compound) (log2 ratio); higher = stronger cysteine engagement by compound
Settings: 50 µM; treatment time: 4 h; cell line lysate: HEK293T
Description: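 IA-DTB competitive cysteine chemoproteomics in HEK293T RIPA lysate. Lysates were treated with compound 29 or 30 at 50 or 200 µM for 4 h, then IA-DTB (500 µM, 1 h), trypsin-digested, NeutrAvidin-enriched and analysed by diaPASEF. Competition ratio = intensity DMSO / intensity compound (n=4 treated, n=64 DMSO); binding: mean log2 CR ≥ 1 and p ≤ 0.05 plus QC filters. Target is the cysteine site.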

Row | Target | log2 mean competition ratio
1 | RHBDD3 C208 (UniProt Q9Y3P4) | 0.267
2 | RBM12B C204 (UniProt Q8IXT5) | -0.217
3 | RIF1 C1865 (UniProt Q5UIP0) | 0.107
4 | RBM5 C766 (UniProt P52756) | 0.226
5 | RANGAP1 C152 (UniProt P46060) | -0.198
6 | RAI14 C935 (UniProt Q9P0K7) | -0.0212
7 | RMI1 C268 (UniProt Q9H9A7) | 0.505
8 | RBBP8 C92 (UniProt Q99708) | -0.201
9 | RCHY1 C136 (UniProt Q96PM5) | 0.634
10 | RASSF4 C236 | -0.197
11 | RANBP2 C1296 (UniProt P49792) | -0.388
12 | RASA1 C828 (UniProt P20936) | -0.304
13 | RIF1 C1594 (UniProt Q5UIP0) | 0.316
14 | RFC1 C607 (UniProt P35251) | 0.129
15 | RFTN1 C211 (UniProt Q14699) | 0.0136
16 | RANBP2 C2791 (UniProt P49792) | 0.135
17 | RIOK1 C361 (UniProt Q9BRS2) | 0.0175
18 | RITA1 C80 | -0.237
19 | RBM25 C132 (UniProt P49756) | -0.476
20 | RIOX2 C19 (UniProt Q8IUF8) | 0.0631

Same assay, conditions: 200 µM; treatment time: 4 h; cell line lysate: HEK293T

Row | Target | log2 mean competition ratio
21 | RHBDD3 C208 (UniProt Q9Y3P4) | 0.155
22 | RBM12B C204 (UniProt Q8IXT5) | 0.0787
23 | RIF1 C1865 (UniProt Q5UIP0) | 0.225
24 | RBM5 C766 (UniProt P52756) | 0.132
25 | RANGAP1 C152 (UniProt P46060) | -0.0458
26 | RAI14 C935 (UniProt Q9P0K7) | 0.0587
27 | RMI1 C268 (UniProt Q9H9A7) | -0.0764
28 | RBBP8 C92 (UniProt Q99708) | -0.0461
29 | RCHY1 C136 (UniProt Q96PM5) | 0.153
30 | RASSF4 C236 | 0.188
31 | RANBP2 C1296 (UniProt P49792) | -0.0258
32 | RASA1 C828 (UniProt P20936) | 0.0684
33 | RIF1 C1594 (UniProt Q5UIP0) | -0.0267
34 | RFC1 C607 (UniProt P35251) | 0.41
35 | RFTN1 C211 (UniProt Q14699) | -0.366
36 | RANBP2 C2791 (UniProt P49792) | -0.244
37 | RIOK1 C361 (UniProt Q9BRS2) | -0.195
38 | RITA1 C80 | 0.215
39 | RBM25 C132 (UniProt P49756) | -0.0859
40 | RIOX2 C19 (UniProt Q8IUF8) | -0.0981
